# Reference: the supplement of paper PMC3334620
# The full ranking holds about 33,000 sequences; the median of “E-score (-0.5 to 0.5)” is about -0.0014, and the highest 2% start at about 0.25. This is one part of the list.
# Target: T1, Cad1 (UniProt P24813)
# T1 sequence: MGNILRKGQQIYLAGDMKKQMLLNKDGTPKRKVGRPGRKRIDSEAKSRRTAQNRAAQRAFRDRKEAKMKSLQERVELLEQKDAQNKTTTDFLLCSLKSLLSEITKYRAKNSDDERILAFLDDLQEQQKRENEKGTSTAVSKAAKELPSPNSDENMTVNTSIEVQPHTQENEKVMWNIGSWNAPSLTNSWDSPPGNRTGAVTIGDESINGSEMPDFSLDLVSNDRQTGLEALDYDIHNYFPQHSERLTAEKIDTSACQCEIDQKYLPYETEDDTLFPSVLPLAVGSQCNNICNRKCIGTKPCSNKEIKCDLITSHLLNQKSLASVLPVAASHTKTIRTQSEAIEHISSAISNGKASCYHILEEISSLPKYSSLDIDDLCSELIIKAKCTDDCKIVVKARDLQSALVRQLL
# Assay: PBM E-score (8-mer binding enrichment) (E-score (-0.5 to 0.5)); higher = stronger / more preferred TF binding
# Settings: protein concentration: 100 nM; construct: GST-full length
# Method in brief: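 The E-score, a modified Wilcoxon-Mann-Whitney statistic, was computed by the Universal PBM Analysis Suite for every ungapped eight-base word pooled with its reverse complement. Scans behind it were normalised with masliner after bound GST-tagged yeast transcription factors were detected with fluorescent anti-GST. The proteins, at about 100-200 nM, had been applied to universal all-10-mer Agilent arrays made double-stranded by primer extension.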
row,Sequence,PBM E-score
1,CCGAAGAA,0.00754
2,TATACTCA,0.0376
3,AGTCAGTA,0.0711
4,ATAATTTC,0.154
5,GCTCCTCA,-0.296
6,ATAGGAAA,0.141
7,AGTCCTTC,-0.175
8,GCCAAACC,-0.105
9,GTGAGACA,-0.00625
10,ATCCTATC,0.0221
11,AGACAATC,0.148
12,AAAGCTCA,-0.177
13,GAAACCCA,0.0394
14,CTTAACAA,0.0494
15,AGTCCCGG,-0.148
16,AGCTGCGG,0.0147
17,GCGCTATA,0.16
18,CACGTTAA,-0.00912
19,TGAGACCA,0.0764
20,ATCTGTTG,-0.0302
21,CTGCACGC,0.0791
22,AAGCCTAG,0.0255
23,ACAGATCG,0.048
24,AGTAGAGA,-0.0661
25,CTAGGACC,-0.231

row,Sequence,PBM E-score
1,CCCGCGTA,0.0387
2,CTCGGTAC,-0.313
3,TACCGGAA,0.145
4,CCCGACAA,0.0776
5,AGTATAAA,0.199
6,CGTCTGTA,0.0482
7,GCGCTCAC,0.209
8,ACAATGGG,-0.0249
9,GAGCGGGC,-0.114
10,AGGATGAA,-0.0458
11,ATGGGCAC,0.104
12,CTTGAGCA,-0.193
13,ACGGCAAT,0.214
14,CATTTGAC,0.0466
15,CCGACGGA,0.0592
16,GTAGGACA,0.092
17,TCACGTGA,0.125
18,GTCCCAAA,0.0565
19,CTAACTAC,-0.0962
20,CAGGCTCG,0.0252
21,GGAACAAA,0.152
22,GAAAATTA,0.13
23,GCGACTCA,-0.0957
24,AGGCGAGA,-0.181
25,AGAATGAG,-0.0793

# As entered above:
# PBM E-score with CCCGACAA reads 0.0776
# PBM E-score with CTCGGTAC reads -0.313
# PBM E-score with GCGACTCA reads -0.0957
# PBM E-score with GGAACAAA reads 0.152

# Following part

row,Sequence,PBM E-score
1,ACAAGAAA,0.158
2,ACCAGGAC,0.0899
3,GACACAAA,0.119
4,CCTTTCTA,-0.105
5,CGTAGGAC,-0.112
6,CGCGATAC,0.134
7,AATCCATA,0.0973
8,CGGAATCC,-0.075
9,CTCGTGCA,-0.0521
10,CGACTAGA,-0.0573
11,CCAGGCTA,-0.219
12,ACTCACCG,-0.179
13,CCACGTCG,-0.0551
14,AGAATCAC,0.0307
15,GCTTACTA,0.426
16,ACAACGGG,0.0974
17,GAACATCA,-0.109
18,GCTCGTCC,0.124
19,ATGTGTAA,0.0779
20,CAGTGCGC,-0.0964
21,ACGACGAC,-0.241
22,CGTGATTA,0.303
23,GAGTTAAC,-0.0189
24,CCAGGCGC,-0.0648
25,AGGCTATG,-0.122

row,Sequence,PBM E-score
1,CTTAACGC,-0.106
2,ACCCCAGG,-0.297
3,CTGGAACC,0.0718
4,AACCAGCT,0.149
5,AGTCAGAT,0.00648
6,GAAGCATC,-0.0878
7,CCAATGGA,-0.0231
8,CAGCTGGC,0.0175
9,CGTTGACC,0.0989
10,AGCCGCCG,0.0553
11,AACACCTG,0.123
12,ATACTGAA,0.11
13,AAGGAACG,0.00462
14,ATCATACG,0.182
15,ACTTCAGG,-0.041
16,AGAACATA,-0.0622
17,ATACGAGC,0.133
18,CATACTGG,-0.0633
19,GTTCTGTA,0.0365
20,CATGCTGA,0.0973
21,CAACGCCA,0.00804
22,TTCCCAAA,0.161
23,TAAAAAGA,0.0113
24,ACGTGCGC,0.122
25,ATCCGGCC,0.0315

# Retrieved one by one from the entries so far, two records:
row,Sequence,PBM E-score
18,CATACTGG,-0.0633
16,AGCTGCGG,0.0147

# (continued)

row,Sequence,PBM E-score
1,CTTGACAC,-0.0541
2,GCCCTATA,-0.0678
3,GATTGAAA,0.114
4,AGCCTTAG,-0.085
5,ACATTATG,0.0893
6,AGGTGTGC,-0.0746
7,CCCGTGCA,-0.216
8,CCTCAGAG,-0.296
9,CGAACATC,-0.0113
10,AGTCTGGC,-0.0919
11,GTCCCAGA,-0.169
12,ACGACAGT,-0.0887
13,AATACTCA,0.0527
14,TACGCGCA,0.225
15,ATAGTGGC,0.0417
16,ATAGGGGG,-0.258
17,AAGGCTGG,-0.128
18,CCCAAAAG,0.0388
19,CTCACGAC,-0.116
20,AGTGGAGA,0.109
21,ACCGCAGA,-0.0544
22,GCTTATAA,0.235
23,AGGTCTAT,-0.0282
24,AGATCAAT,-0.021
25,TCTCGAGA,0.146

row,Sequence,PBM E-score
1,AATTTGAA,0.189
2,AGCCGAGG,0.14
3,GATCTAGC,-0.0963
4,CCGATAAG,0.0791
5,CTATATGC,0.0505
6,CGACGCTA,-0.0416
7,AACATACT,0.0267
8,TAACACCA,0.0194
9,CATAAGCA,0.0863
10,ACATGTTA,0.135
11,CTAGTATC,0.0905
12,ACTTAAAG,-0.246
13,AATGTTAT,0.18
14,ACCACCCC,-0.248
15,CCTTACCA,-0.0626
16,CCAGCACC,-0.289
17,CACCTCTA,0.11
18,CTGTTAAC,0.258
19,GGCCAGTA,-0.117
20,AGATCCCG,0.281
21,AAGGTTAG,-0.106
22,CGATCAGC,0.118
23,AGGCTACA,0.00724
24,ACTCTCAA,0.0325
25,CAGGGCCC,-0.0619

row,Sequence,PBM E-score
1,CGTATTTA,0.142
2,AAATTCGC,0.179
3,CGCTGCTC,-0.19
4,CCTTAATC,-0.138
5,CTTTGGAA,-0.113
6,CGGATATA,0.246
7,CTACAATC,0.155
8,CCGACAGG,0.0125
9,CAATACAG,-0.0308
10,ATCGCGTG,0.186
11,CAACGCCC,-0.155
12,TAAACAAA,-0.0115
13,CGGCTTGA,0.0352
14,CACAGAGC,0.00635
15,AGATTTTG,0.103
16,GACATAAC,0.19
17,ACTCAAGT,-0.0786
18,GGGCTACA,-0.129
19,TGCGGACA,0.212
20,AGTGTAGG,0.0119
21,AACAACAT,0.115
22,GCGCTTAC,0.299
23,CACCCGCA,-0.169
24,AACGTGCC,-0.144
25,AGCTTCTG,-0.0643

row,Sequence,PBM E-score
1,GGCACTGA,-0.0766
2,CTAACTTC,0.105
3,AGAACATC,0.157
4,AATGTGCG,0.164
5,ACAAAGGC,-0.0281
6,ATGAGGGC,-0.137
7,GGACCTCA,-0.133
8,GCTTCAAA,-0.105
9,CCGCAAGC,-0.193
10,GTCGCGAC,0.391
11,AACCTATG,0.00554
12,AGCTTAAA,0.0315
13,CGGTAAGC,0.083
14,ACTGATTC,-0.0134
15,GAAATTCA,0.169
16,CTTAGCAA,0.152
17,CACGTGCA,0.125
18,AGCATATG,-0.0736
19,ATTGGGGC,-0.0195
20,AAGGCCCG,-0.176
21,AAGATAGG,-0.0466
22,ACAAATCG,0.161
23,CCTAGGAC,-0.144
24,GAGTCAGC,0.0421
25,CCCCTCAC,-0.0372

row,Sequence,PBM E-score
1,GCGATGCC,-0.291
2,GTGAGCAA,0.075
3,AAGAGCGT,0.0559
4,ATTCACAC,0.118
5,GCTACGCA,0.0446
6,GCTTCTGA,-0.0664
7,AGACATGA,-0.107
8,GGAACTTA,0.111
9,CTCCGTGC,-0.116
10,ACAGGGAC,-0.079
11,ATCAACAG,0.126
12,AGATAGAA,-0.0145
13,GGTATATA,0.199
14,AGCTCCAT,-0.00372
15,ACACTATA,0.227
16,GTCTATAA,0.0252
17,CATGAGGC,-0.0285
18,TAAACCCA,0.119
19,CTTATCGA,0.197
